Three molecules from article PMC6756001 can be followed below.

By UniProt entry, the sequences of proteins in these tests, tags left out.
UniProt P19474: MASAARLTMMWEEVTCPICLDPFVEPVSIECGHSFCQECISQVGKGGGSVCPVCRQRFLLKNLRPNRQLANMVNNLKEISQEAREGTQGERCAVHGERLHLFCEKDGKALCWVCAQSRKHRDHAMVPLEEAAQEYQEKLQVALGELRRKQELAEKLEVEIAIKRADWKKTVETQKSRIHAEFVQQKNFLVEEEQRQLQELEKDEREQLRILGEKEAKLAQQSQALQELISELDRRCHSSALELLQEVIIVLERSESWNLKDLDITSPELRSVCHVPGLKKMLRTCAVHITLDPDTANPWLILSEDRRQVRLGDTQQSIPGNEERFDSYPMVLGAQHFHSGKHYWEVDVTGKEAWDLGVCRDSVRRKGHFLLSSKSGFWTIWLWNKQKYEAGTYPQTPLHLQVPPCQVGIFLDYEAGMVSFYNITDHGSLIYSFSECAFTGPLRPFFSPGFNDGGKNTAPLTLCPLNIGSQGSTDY

The target in test [1] is T1, Flag-tagged Prohibitin 1 (PHB1) (UniProt P35232).
T1 sequence: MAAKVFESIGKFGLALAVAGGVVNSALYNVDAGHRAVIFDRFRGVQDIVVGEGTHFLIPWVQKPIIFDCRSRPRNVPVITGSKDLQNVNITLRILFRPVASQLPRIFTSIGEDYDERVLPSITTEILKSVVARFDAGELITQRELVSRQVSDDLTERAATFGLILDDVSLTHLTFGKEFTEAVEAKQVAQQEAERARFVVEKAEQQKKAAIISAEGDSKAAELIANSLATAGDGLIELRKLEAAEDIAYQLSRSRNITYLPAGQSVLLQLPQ
The experiment in a line: co-IP; Myc-tagged TRIM21 and Flag-tagged PHB1 transiently over-expressed in CNE1 cells, harvested 48 h post-transfection; IP with antibody to Flag or Myc-tag; normal mouse IgG as control.

Test [2] has as its target T1, Flag-tagged Prohibitin 1 (PHB1). The experiment in a line: co-IP; flag-tagged PHB1, myc-tagged LPLUNC1 and his-tagged TRIM21 co-expressed in CNE1 cells; IP with anti Flag antibody, IB for LPLUNC1 and TRIM21.
The target is the same in test [3]. The test is described as above. This is another data set of the same source.
The target is the same in test [4]. The experiment in a line: co-IP; HNE1 and CNE1 cells co-transfected with Flag-PHB1 and Myc-LPLUNC1; IP with anti-Flag or anti-myc antibody; normal mouse IgG as negative control; lysis in RIPA buffer.

No constants are given. Whether binding was seen depends on the method and setting. In cells and extracts the contact can be indirect. Some results given as binding are weak or reduced against the parent protein; the word gives no strength. Tags and fused reporters may be left off the sequences shown.

Take “Myc-tagged TRIM21 (from UniProt P19474 1-475) (enzyme)”: in test [1], the binding result was “binds”.
Take “his-tagged TRIM21 (from UniProt P19474 1-475) (enzyme)”: the binding result in test [2] was “binds weakly”.

B1: Myc-tagged long palate, lung and nasal epithelium clone 1 (LPLUNC1) (protein, UniProt Q8TDL5 22-484)
chain: TLSPTAVLILGPKVIKEKLTQELKDHNATSILQQLPLLSAMREKPAGGIPVLGSLVNTVLKHIIWLKVITANILQLQVKPSANDQELLVKIPLDMVAGFNTPLVKTIVEFHMTTEAQATIRMDTSASGPTRLVLSDCATSHGSLRIQLLHKLSFLVNALAKQVMNLLVPSLPNLVKNQLCPVIEASFNGMYADLLQLVKVPISLSIDRLEFDLLYPAIKGDTIQLYLGAKLLDSQGKVTKWFNNSAASLTMPTLDNIPFSLIVSQDVVKAAVAAVLSPEEFMVLLDSVLPESAHRLKSSIGLINEKAADKLGSTQIVKILTQDTPEFFIDQGHAKVAQLIVLEVFPSSEALRPLFTLGIEASSEAQFYTKGDQLILNLNNISSDRIQLMNSGIGWFQPDVLKNIITEIIHSILLPNQNGKLRSGVPVSLVKALGFEAAESSLTKDALVLTPASLWKPSSPVSQ
Consider B1, for which the binding entry in test [3] and in test [4] was “binds” each time.
